Measurements as given in US20100261876A1 (priority 2007, published 2010).

How the values were obtained:
[1] = general procedure: hybrid (solid and solution phase) peptide synthesis; 2-CTC; TBTU / 6-Cl HOBt / DIEA; conditions: whole synthesis; for crude yield: scale of the general procedure 2-CTC 2 kg, 3.1 mol active Cl, 2-CTC 1.5 kg, 2.3 mol active
[2] = general procedure: hybrid (solid and solution phase) peptide synthesis; 2-CTC resin (also Sieber amide, rink-loaded CTC, Glu37 side-chain-loaded CTC); TBTU / 6-Cl HOBt / DIEA

In the case of QQEKNEAALRE, the crude mass [1] is reported as 2618 g and the crude yield [1] is reported as 72.6%.

QQEKNEAALREL showed a step yield ([2]; coupling step) of 98.4%.

For “TTWEAWDRAIAEYAARIEALLRALQEQQEKNEAALREL”, the step yield ([2]; late stage modification step) was 100%, the step yield ([2]; purification step, run 1) was 94% and the step yield ([2]; purification step, run 2) was 96%.

TTWEAWDRAIAEYAARIEALLRALQE gave a crude mass [1] of 2841 g and a crude yield [1] of 61.6%.

Plain letter strings leave the end groups untold.
